The labels stand for the following.
T1: MuSK produced in yeast (UniProt O15146)
T1 sequence (looked up): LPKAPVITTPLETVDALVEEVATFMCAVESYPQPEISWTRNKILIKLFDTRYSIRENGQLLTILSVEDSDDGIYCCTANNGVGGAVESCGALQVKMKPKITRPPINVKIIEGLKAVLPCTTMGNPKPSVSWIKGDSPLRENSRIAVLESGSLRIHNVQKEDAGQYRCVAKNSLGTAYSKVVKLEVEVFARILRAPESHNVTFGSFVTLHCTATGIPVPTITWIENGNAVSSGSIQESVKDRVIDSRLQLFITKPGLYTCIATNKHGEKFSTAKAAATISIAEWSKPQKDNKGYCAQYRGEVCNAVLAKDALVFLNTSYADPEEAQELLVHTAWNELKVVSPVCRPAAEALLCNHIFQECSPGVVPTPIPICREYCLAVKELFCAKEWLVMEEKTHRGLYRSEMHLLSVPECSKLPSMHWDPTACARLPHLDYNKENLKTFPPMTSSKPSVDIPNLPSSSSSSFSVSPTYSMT

T2: MuSK at mouse neuromuscular junctions (levator auris longus muscle) and endogenous MuSK of C2C12 myotubes (mouse) (UniProt Q61006)
T2 sequence (looked up): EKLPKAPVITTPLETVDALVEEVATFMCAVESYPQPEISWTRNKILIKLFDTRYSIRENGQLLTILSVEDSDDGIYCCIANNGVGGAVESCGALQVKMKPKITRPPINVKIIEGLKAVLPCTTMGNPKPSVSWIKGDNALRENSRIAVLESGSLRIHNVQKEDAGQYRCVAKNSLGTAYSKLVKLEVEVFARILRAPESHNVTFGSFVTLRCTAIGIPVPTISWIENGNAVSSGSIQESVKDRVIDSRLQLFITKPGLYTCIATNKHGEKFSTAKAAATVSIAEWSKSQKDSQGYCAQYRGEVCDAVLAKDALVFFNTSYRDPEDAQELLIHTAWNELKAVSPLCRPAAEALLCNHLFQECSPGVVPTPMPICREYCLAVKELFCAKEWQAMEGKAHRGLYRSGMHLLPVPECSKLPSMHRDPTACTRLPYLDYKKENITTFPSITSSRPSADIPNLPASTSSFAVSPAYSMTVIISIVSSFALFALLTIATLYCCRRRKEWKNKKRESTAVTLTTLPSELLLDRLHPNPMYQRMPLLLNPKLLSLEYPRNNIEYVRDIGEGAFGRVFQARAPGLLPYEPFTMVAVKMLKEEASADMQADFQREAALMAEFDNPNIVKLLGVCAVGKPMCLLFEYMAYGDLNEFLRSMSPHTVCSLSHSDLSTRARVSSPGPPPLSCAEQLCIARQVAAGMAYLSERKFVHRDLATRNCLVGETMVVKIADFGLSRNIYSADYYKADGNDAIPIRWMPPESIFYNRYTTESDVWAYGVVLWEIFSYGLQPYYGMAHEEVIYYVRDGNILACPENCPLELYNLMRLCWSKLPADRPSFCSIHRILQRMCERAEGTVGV

T3: recombinant MuSK produced in E. coli (UniProt O15146)
T3 sequence (looked up): T1 sequence (looked up)

B1: 11-3F6 (MuSK autoantibody clone from MuSK MG patient 1, B cell culture medium) (antibody, IgG1, V domains shown)
VH: EVQLVESGGGLVKPGGSLRLSCAASGFTFSSYTMDWVRQAPGKGLEWVSSIGSNGDYIYYADSVRGRFTISRDNAKNSLYLQMNSLRPDDTADYYCARGQLAVAGTHFDYWGRGSLVTVSS
VL: DIQMTQSPSSLSASVGDRVTISCRASQKVNKYVNWYQQTPGKAPRLLIYAASTLQSGVPSRFSGSGSGANFTLTISGLQPEDFAIYFCQQSYSPLCTFGQGTKLEIK
B2: 11-3D9 (MuSK autoantibody clone from MuSK MG patient 1, B cell culture medium) (antibody, IgG1, V domains shown)
VH: EVQLVESGGGLVKPGESLRLSCAASGFNFSTYTMHWVRQAPGKGLEWVSSISSRSAYKYYADSVKGRFTISRDIAKNSLYLQMNSLRAEDTAVYYCARDFFQLGPPRFDSWGQGTLVTVSS
VL: DIQMTQSPSSLSASIGDRVTISCRASQRISSFLNWYQQKPGKPPNLLIYGASNLQSGVPSRFSGSGSGTDFTLTITSLQPEDYAIYYCQQSYSPMYTFGQGTSLEIK
B3: 13-3B5 recombinant IgG4 (bivalent monospecific, homospecific) (antibody, V domains shown)
VH: QVQLVQSGAVVAKPGASVQVSCKTSGYTFTGQYLHWVRQAPGQGLEWIGWINPSSGVTKFAEKFEGRATMTRDTSITTAYIDLRSLRSDDTATYYCATLSLGVYYVGMVAWGQGTLVTVSS
VL: SYELTQPPSVSVSPGQTATITCSGDGLAQQHVYWFQQRPGQAPLLIIYKDIERPSGIPERFSGSSSGTTAMLTISGVQAEDEADYYCQSGDRTATSVLFGGGTKMTVL
B4: 13-3B5 recombinant IgG1 (bivalent monospecific) (antibody, V domains shown)
VH: B3 VH
VL: B3 VL
B5: 11-3F6 recombinant IgG1 (bivalent monospecific) (antibody, V domains shown)
VH: B1 VH
VL: B1 VL
B6: 11-3F6 recombinant IgG4 (bivalent monospecific, homospecific) (antibody, V domains shown)
VH: B1 VH
VL: B1 VL
B7: 13-3B5 (MuSK autoantibody clone from MuSK MG patient 1, B cell culture medium) (antibody, IgG4, V domains shown)
VH: B3 VH
VL: B3 VL
B8: 13-4D3 (MuSK autoantibody clone from MuSK MG patient 1, B cell culture medium) (antibody, IgG3, V domains shown)
VH: EVQLMESGGGLVKPGGSLRLSCTASGFTFSSYTMTWVRQAPGKGLEWVSSISSGGHYIYYTDSLKGRFIISRDNAKNSVFLQMNNLRAEDTATYYCARERLLRLGVGFDFWGQGSLVTVSS
VL: DIQMTQSPSSLSASEGDRVTMTCRASQSISGYLNWYQQKPGKAPKLLIYAASTLQSGVPSRFSGSSSGTEFTLSISSLQPEDFATYYCQQSYSALYTFGQGTRVEIK
B9: 13-3D10 (MuSK autoantibody clone from MuSK MG patient 1, B cell culture medium) (antibody, IgG1, V domains shown)
VH: EDLLVESGGGLVKPGQSLTLSCAASGFDFSASTMAWVRQAPGKGLEWVASVSGDSHHIYYADSLKGRFTLSRDNARNSFFLEMNSLRAEDTAVYYCARERLLRLGVGFDSWGQGSLVAVSS
VL: DIHMTQSPSSLSSSVGDRVTMTCRASQRISGFVNWYQQKPGRAPTLLISAASTLQSGVPSRFSGSASGTDFTLTISGLQPEDSAIYYCQQSYSPLYTFGQGTKVEIK
B10: 14-2E9 (MuSK autoantibody clone from a MuSK MG patient, B cell culture medium) (antibody, V domains shown)
VH: EVQLVESGGGLVQPGGSLRLSCAASGFTFSSYWMHWVRQVPGKGLVWVSRLNEDGSTTNYADSVKGRFTISRDNAKYTLYLQMNSLRFEDTAVYYCVSDLSGKDEHWGQGTLVTVSS
VL: DIVMTQSPLSLPVTPGEPASISCRSTQSLLHSNGYYWLDWYLQKPGQSPQLLVYLGFNRASGVPDRFSGSGSGTDFTLKISRVEAEDVGVYYCMQGLQTPYTFGQGTTLEIK

Results are given in words; binding and its absence hold for the method and conditions named. Some entries that bind do so weakly or less than the wild type.

The target in the first assay is T1, MuSK produced in yeast. Put plainly: ELISA, culture medium on yeast-produced MuSK, compared with AChR alpha subunit control antigen.
As to B1, the binding entry is recorded as “binds”.

As for B2, the binding entry was “binds”.

Another assay concerns the target T2, MuSK at mouse neuromuscular junctions (levator auris longus muscle) and endogenous MuSK of C2C12 myotubes (mouse). Briefly: immunostaining of isolated mouse levator auris longus muscle, confocal microscopy.
Turning to B3, the binding entry is given as “binds”.

Turning to B4, the binding result is on record as “binds”.

As for B5, the binding entry is listed as “binds”.

With B6, the binding entry was “binds”.

The next assay shares this target. Briefly: staining of mouse NMJ in ex vivo levator auris longus muscle.
Regarding B3, the binding result was “binds”.

Take B6: the binding result is given as “binds”.

Another assay shares this target. Briefly: immunostaining of whole mount mouse levator auris longus muscle (FIG. 1, IgG4 recombinant antibodies shown).
B3: the binding result is “binds”.

As to B6, the binding result is recorded as “binds”.

A further assay addresses T3, recombinant MuSK produced in E. coli. Put plainly: ELISA, single B cell culture medium on coated recombinant MuSK (FIGS. 3 and 4). On the technique in general: An ELISA detects its analyte on a solid surface through an enzyme-linked reagent.
Take B7: the binding entry is reported as “binds”.

As to B8, the binding entry is listed as “binds”.

For the molecule B9, the binding entry is listed as “binds”.

Consider B10, for which the binding result is recorded as “binds”.

B1: the binding entry is recorded as “binds”.

B2: the binding entry is “binds”.

For a further assay the target is unchanged. Briefly: antigen-specific single B cell sorting with labelled recombinant MuSK (E. coli, R-PE; yeast, DyLight 650); members from Table 3.
On to B7, for which the binding result is given as “binds”.

Turning to B8, the binding entry is on record as “binds”.

As to B9, the binding result was “binds”.

As for B1, the binding entry was “binds”.

As for B2, the binding result is recorded as “binds”.

The values above are taken from US20220002438A1.
